From publication PMC6424967
Results are given in words; binding and its absence hold for the method and conditions named. Binding seen in cells or lysates may run through a third protein. Some entries that bind do so weakly or less than the wild type. Where a sequence is shown, tags or fusion partners need not be part of it.

By UniProt entry, the sequences of proteins in these tests, tags left out. Where a name states a change or a piece, a line headed by the entry shows the natural chain unless it says otherwise.
UniProt P40337: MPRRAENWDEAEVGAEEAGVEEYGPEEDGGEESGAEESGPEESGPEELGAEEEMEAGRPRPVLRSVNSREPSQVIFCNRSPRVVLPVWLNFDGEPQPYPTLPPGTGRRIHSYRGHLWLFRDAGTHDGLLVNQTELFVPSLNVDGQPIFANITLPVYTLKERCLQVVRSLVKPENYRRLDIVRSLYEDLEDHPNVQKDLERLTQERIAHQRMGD

Key:
[1] = target: Flag-VHL (wild type) (UniProt P40337); assay: co-IP; COS-7 cells with Flag-VHL variants and HA-HIF-2α, with or without V5-RSUME (and Gam-1 or Gam-1MUT control vector in Fig. 4c); extracts immunoprecipitated with anti-FLAG; western blot (Fig. 4b-d)
[2] = target: Flag-VHL K171R (UniProt P40337); assay: as above
[3] = target: Flag-VHL L188V (UniProt P40337); assay: co-IP; tandem immunoprecipitation: COS-7 cells with Flag-VHL variants, V5-RSUME and HA-HIF-2α, 5 μM MG-132 for 6 h; first IP anti-FLAG, elution with 3xFLAG peptide 100 μg/ml in RIPA buffer 1 h 4 °C, second IP anti-V5; western blot (Fig. 4a)
[4] = target: Flag-VHL R167Q (UniProt P40337); assay: as above
[5] = target: Flag-VHL Y112H (UniProt P40337); assay: as above
[6] = target: Flag-VHL L188V (UniProt P40337); assay: co-IP; COS-7 cells co-transfected with Flag-VHL variants and V5-RSUME; lysed 48 h post transfection in modified RIPA buffer (50 mM Tris-HCl pH 7.4, 1 mM EGTA, 1% NP-40, 150 mM NaCl); immunoprecipitated with anti-FLAG, protein A-agarose, 4 °C; western blot (Fig. 3d, e)
[7] = target: Flag-VHL L188V/K171R (UniProt P40337); assay: as above
[8] = target: Flag-VHL R167Q (UniProt P40337); assay: as above
[9] = target: Flag-VHL R167Q/K171R (UniProt P40337); assay: as above
[10] = target: Flag-VHL Y112H (UniProt P40337); assay: as above
[11] = target: Flag-VHL Y112H/K171R (UniProt P40337); assay: as above

binding [1]: binds
binding [2]: binds
binding [3]: binds
binding [4]: binds
binding [5]: binds
binding [6]: binds
binding [7]: binds
binding [8]: binds
binding [9]: binds
binding [10]: binds
binding [11]: binds
B1: V5-RSUME (RWD domain-containing protein SUMO Enhancer) (protein, UniProt Q9Y3V2 1-267)
chain: MAEPVQEELSVLAAIFCRPHEWEVLSRSETDGTVFRIHTKAEGFMDVDIPLELVFHLPVNYPSCLPGISINSEQLTRAQCVTVKENLLEQAESLLSEPMVHELVLWIQQNLRHILSQPETGSGSEKCTFSTSTTMDDGLWITLLHLDHMRAKTKYVKIVEKWASDLRLTGRLMFMGKIILILLQGDRNNLKEYLILQKTSKVDVDSSGKKCKEKMISVLFETKVQTEHKRFLAFEVKEYSALDELQKEFETAGLKKLFSEFVLALVK
